Experimental data published in patent publication US20110229560A1.
Results are given in words; binding and its absence hold for the method and conditions named. Binding seen in cells or lysates may run through a third protein. Some results given as binding are weak or reduced against the parent protein; the word gives no strength. For some of these results: Sequences can lack the tags named with a protein.

The chains behind the UniProt entries cited, without tags or fusion partners. Where a name states a change or a piece, a line headed by the entry shows the natural chain unless it says otherwise.
UniProt Q86WI3: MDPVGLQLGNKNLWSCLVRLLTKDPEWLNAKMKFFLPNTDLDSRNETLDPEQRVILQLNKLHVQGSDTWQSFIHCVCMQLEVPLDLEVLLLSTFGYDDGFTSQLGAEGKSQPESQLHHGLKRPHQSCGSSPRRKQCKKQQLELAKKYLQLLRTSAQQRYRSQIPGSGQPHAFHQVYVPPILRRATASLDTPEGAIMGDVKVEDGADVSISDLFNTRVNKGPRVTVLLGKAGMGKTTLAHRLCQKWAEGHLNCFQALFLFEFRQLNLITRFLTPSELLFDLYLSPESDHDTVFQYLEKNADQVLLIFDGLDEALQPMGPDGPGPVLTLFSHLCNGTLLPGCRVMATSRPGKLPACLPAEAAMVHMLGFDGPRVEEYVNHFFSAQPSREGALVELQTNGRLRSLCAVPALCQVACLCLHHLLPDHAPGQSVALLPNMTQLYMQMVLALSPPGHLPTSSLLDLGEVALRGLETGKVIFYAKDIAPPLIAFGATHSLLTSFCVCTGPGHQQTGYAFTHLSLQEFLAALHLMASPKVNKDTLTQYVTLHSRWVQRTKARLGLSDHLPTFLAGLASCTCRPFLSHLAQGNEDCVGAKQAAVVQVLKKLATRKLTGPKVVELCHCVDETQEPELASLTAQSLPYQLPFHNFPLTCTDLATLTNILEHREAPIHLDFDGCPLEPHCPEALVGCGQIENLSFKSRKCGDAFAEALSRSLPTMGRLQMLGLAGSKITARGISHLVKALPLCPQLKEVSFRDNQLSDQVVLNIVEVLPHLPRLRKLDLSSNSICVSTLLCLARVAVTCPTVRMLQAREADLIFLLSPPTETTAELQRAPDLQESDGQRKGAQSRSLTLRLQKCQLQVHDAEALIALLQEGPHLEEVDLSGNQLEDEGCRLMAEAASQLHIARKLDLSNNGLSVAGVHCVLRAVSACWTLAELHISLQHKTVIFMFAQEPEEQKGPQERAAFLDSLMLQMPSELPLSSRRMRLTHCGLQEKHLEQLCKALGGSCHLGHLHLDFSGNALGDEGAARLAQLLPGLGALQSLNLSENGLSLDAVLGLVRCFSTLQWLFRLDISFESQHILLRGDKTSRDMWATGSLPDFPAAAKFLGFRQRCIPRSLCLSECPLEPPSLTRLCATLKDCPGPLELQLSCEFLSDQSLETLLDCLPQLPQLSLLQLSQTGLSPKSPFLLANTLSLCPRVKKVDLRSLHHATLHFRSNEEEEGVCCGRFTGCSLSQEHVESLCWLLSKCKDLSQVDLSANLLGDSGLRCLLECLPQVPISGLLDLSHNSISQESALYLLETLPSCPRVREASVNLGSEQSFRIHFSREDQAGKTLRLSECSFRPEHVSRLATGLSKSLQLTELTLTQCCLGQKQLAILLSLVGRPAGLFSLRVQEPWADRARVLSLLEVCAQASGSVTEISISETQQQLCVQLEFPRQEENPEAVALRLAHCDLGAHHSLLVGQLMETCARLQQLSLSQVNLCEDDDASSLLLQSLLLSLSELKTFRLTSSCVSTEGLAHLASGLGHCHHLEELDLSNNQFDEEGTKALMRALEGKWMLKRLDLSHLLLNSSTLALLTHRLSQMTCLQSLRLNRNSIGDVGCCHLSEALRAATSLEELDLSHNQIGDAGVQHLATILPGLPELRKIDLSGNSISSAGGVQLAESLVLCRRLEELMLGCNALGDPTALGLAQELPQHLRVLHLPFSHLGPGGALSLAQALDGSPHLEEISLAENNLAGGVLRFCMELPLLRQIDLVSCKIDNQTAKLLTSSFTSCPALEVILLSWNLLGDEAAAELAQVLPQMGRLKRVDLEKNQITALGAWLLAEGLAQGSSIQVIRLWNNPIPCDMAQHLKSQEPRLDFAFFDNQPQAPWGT

Assays:
Flag-tagged IKKα = molecular target: T1, Flag-tagged IKKα (UniProt O15111); assay: restatement of the co-IP results
T1 sequence (looked up): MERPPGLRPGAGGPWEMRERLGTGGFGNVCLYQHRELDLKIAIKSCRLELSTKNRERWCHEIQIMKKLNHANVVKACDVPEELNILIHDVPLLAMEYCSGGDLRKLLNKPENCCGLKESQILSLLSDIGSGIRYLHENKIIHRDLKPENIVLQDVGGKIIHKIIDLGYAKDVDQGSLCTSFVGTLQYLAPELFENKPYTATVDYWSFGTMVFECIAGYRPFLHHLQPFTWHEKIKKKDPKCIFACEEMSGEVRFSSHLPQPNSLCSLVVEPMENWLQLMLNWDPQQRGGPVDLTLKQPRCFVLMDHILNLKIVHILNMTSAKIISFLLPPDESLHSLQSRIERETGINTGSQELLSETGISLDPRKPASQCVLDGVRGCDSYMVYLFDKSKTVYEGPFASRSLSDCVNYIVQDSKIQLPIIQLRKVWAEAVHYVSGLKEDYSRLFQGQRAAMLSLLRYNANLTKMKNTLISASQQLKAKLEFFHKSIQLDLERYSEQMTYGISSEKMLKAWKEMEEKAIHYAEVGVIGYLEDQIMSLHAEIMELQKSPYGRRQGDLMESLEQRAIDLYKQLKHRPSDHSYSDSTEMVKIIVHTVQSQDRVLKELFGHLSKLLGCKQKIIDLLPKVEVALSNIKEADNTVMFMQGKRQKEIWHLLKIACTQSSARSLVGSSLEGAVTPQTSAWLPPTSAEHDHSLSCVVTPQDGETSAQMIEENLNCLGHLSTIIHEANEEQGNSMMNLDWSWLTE

Flag-RIG-I = molecular target: T2, Flag-RIG-I (UniProt O95786); assay: restatement of the co-IP results
T2 sequence (looked up): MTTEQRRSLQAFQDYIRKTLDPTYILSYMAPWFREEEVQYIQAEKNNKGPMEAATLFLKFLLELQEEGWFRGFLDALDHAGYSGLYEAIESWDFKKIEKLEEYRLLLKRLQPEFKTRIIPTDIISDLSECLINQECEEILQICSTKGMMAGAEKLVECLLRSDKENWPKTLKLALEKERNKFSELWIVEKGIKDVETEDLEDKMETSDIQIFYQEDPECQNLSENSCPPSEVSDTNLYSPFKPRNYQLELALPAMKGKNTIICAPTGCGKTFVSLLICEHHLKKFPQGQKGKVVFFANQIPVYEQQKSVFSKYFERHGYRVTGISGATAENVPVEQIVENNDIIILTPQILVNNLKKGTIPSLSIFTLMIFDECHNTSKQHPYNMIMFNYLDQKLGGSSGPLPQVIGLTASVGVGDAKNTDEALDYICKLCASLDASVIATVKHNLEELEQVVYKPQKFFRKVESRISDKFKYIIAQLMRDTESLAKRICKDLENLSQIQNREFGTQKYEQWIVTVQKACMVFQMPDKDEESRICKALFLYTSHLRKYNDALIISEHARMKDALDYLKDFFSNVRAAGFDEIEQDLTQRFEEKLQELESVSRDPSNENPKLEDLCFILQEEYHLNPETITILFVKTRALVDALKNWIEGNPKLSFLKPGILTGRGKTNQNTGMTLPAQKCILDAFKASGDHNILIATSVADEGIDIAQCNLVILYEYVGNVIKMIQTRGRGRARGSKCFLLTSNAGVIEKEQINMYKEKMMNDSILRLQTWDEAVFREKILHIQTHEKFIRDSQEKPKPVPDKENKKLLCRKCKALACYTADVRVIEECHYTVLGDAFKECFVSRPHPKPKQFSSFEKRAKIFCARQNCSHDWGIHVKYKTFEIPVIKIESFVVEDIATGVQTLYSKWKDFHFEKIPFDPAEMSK

[1] = molecular target: T3, MDA5 (expressed in 293T cells) (UniProt Q9BYX4); assay: restatement of the co-IP results
T3 sequence (looked up): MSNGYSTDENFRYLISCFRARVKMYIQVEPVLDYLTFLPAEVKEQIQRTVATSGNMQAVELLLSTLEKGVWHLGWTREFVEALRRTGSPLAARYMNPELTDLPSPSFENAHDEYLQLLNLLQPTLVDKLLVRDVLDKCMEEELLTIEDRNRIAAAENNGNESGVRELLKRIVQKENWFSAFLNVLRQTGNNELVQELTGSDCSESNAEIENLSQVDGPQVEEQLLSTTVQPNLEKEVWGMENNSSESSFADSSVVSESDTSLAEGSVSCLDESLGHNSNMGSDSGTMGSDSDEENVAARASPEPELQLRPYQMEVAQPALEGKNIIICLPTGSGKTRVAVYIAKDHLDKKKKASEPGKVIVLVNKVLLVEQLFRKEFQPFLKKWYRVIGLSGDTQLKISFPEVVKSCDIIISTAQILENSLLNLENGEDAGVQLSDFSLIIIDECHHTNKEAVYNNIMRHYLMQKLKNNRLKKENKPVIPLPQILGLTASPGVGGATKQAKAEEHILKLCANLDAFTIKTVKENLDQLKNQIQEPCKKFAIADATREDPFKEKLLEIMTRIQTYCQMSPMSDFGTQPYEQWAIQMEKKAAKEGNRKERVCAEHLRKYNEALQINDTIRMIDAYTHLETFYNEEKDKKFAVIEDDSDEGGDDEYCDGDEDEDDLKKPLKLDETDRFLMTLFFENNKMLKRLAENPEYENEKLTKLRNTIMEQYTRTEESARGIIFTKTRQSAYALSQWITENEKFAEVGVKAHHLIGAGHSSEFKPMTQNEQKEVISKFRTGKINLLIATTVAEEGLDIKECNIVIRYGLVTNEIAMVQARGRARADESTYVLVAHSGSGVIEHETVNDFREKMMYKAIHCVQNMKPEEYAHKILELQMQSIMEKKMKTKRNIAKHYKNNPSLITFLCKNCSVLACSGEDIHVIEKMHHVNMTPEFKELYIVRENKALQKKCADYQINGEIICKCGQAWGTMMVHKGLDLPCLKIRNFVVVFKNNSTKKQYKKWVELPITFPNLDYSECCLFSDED

[2] = molecular target: T3, MDA5 (expressed in 293T cells); assay: co-IP (anti-HA beads) and Western blot (anti-MDA5), transfected 293T cells

binding (Flag-tagged IKKα): binds | binding (Flag-RIG-I): binds | binding [1]: binds | binding [2]: binds
Substance: HA-tagged NLRC5 (human NLRC5, full length) (from UniProt Q86WI3 1-1866)
